Reference: PubChem BioAssay AID1347076 (National Center for Advancing Translational Sciences (NCATS), 2019)
“And” between values parts separate entries of the source, which are not always exact repeats. Equal entries are not always repeated. Among all 400,000 compounds or so, about 13,000 (3.2%) were called active. The shares of active, inactive and inconclusive entries below differ from those in the screen. The call rests on the fitted dose curve; in most records, active means well fitted cell-killing curve with a large enough effect; inconclusive means small, poorly fitted or top-dose-only effect, or effect the other way; inactive means flat fitted curve, though single readings scatter. Potencies beside an inconclusive call are fits to weak or partial responses and may not hold up.

Experiment: qHTS assay for MDR1-selective chemotherapeutics: Primary screen using the drug-selected MDR subline cells KB-V1; further: nearly all actives have a fitted effect of over 60% in size
Conditions: KB-V1 MDR cells viability, CellTiter-Glo, 72 h; series mostly up to 46.1 µM
Method in brief: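 Readout: CellTiter-Glo luminescence, 10 min after addition. Cells: KB-V1 MDR subline, 72 h at 37 degrees C with compound. Analysis: corrected, normalized data fitted to concentration-effect curves.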
Potency means the concentration at half of the fitted maximal effect.

| SMILES | Potency |
| --- | --- |
| COc1ccc(-c2ccccc2NC(=O)C2CCCN(Cc3ccco3)C2)cc1 (stereo not given) | inconclusive: 6.51 µM [cytotoxic, partial curve] |
| COc1ccccc1C(=O)Nc1ccc(C)cc1C(=O)c1ccccc1 | inconclusive: 18.4 µM [cytotoxic, partial curve] |
| C/C(=N\Nc1ccccn1)c1ccc(C(C)C)cc1 | inconclusive: 29.1 µM [cytotoxic, single point] |
| Cc1ccc(S(=O)(=O)NCc2nc(-c3ccccc3)no2)cc1 | inconclusive: 25.9 µM [cytotoxic, single point] |
| CN(C)c1ccc(/C=C/C(=O)c2ccc3c(c2)OCO3)cc1 | inconclusive: 29.1 µM [cytotoxic, single point] |
| N#C/C(=C(/O)c1ccco1)c1nc2ccccc2s1 | inconclusive: 35.5 µM [cytotoxic, single point] |
| Cc1cc2c(cc1C)N(C(=O)CSC1=NCCS1)C(C)(C)c1ssc(=S)c1-2 | active: 16.4 µM |
| CC1=C(C(=O)N2CCCCCC2)CC(CC(=O)NCCN2CCOCC2)C(=O)N1CCC1=CCCCC1 (stereo not given) | inactive |
| O=C(NC1CCCCC1)c1cc([N+](=O)[O-])ccc1N1CCOCC1 | inconclusive: 11.6 µM [cytotoxic, partial curve] |
| Cc1ccc(C(=O)n2nc(-c3ccco3)nc2NCc2cccs2)cc1 | inactive |
| CNS(=O)(=O)c1cccc(C(=O)NCC(c2cccs2)N2CCOCC2)c1 (stereo not given) | inactive |
| O=C(COc1ccccc1)n1nc(-c2ccc(Cl)cc2)nc1NCc1ccco1 | inconclusive: 20 µM [cytotoxic, single point] |
| O=C(c1ccccc1Br)N1CCc2c([nH]c3ccccc23)C1 | inactive |
| O=C(NC1CC2CCCC(C1)N2Cc1ccccc1)c1cccc(Cl)c1 (stereo not given) | inconclusive: 7.31 µM [cytotoxic, partial curve, poor fit] |
| Cc1ccc(N2CCC(N3CCN(C)C(CCO)C3)CC2)cc1 (stereo not given) | inconclusive: 29.1 µM [rising, single point] |
| CCC1(c2ccccc2)NC(=O)N(CC(=O)Nc2ccc(N3CCCC3)cc2C)C1=O (stereo not given) | inconclusive: 23.1 µM [cytotoxic, single point] |
| O=C(Nc1cccnc1)c1ccc(S(=O)(=O)c2ccccc2)cc1 | inconclusive: 29.1 µM [cytotoxic, single point] |
| CSCc1cc(N(C)c2ccccc2)nc(-c2ccccn2)n1 | inactive |
| Cn1c(=O)c(C(=O)NNC(=O)c2ccccc2Cl)c(O)c2ccccc21 | inconclusive: 18.4 µM [cytotoxic, partial curve, poor fit] |
| CC(C)OCCCNC(=S)N1CCC(C(=O)c2ccc(Cl)cc2)CC1 | active: 8.2 µM |
| COc1cc(/C=C/C(=O)OC(C)C(=O)c2ccccc2)cc(OC)c1OC (stereo not given) | inconclusive: 8.2 µM [cytotoxic, partial curve, poor fit] |
| CN(C)CCCn1c2c3ccccc3ccc2c2oc(=O)c3ccccc3c21 | inconclusive: 29.1 µM [cytotoxic, single point] and inconclusive: 11.6 µM [cytotoxic, partial curve, poor fit] |
| O=C1CN(C(=O)c2ccc(F)cc2)c2ccccc2N1 | inconclusive: 29.1 µM [rising, single point] |
| Cc1cc(N(C)Cc2ccccc2)nc2cc(O)ccc12 | inactive |

| SMILES | Potency |
| --- | --- |
| Cc1ccc(NC(=O)COC(=O)c2ccc(Cl)nc2)cc1S(=O)(=O)N1CCCCC1 | inconclusive: 29.1 µM [rising, single point] |
| COc1ccc(NC(=O)N2CCC(n3nnc4cc(C)ccc43)CC2)cc1 | inconclusive: 5.17 µM [cytotoxic, partial curve] |
| COc1ccc2oc(C(=O)NCCc3ccccc3)c(C)c2c1 | inactive |
| O=Cc1ccc(O)c2ncccc12 | inconclusive: 9.2 µM [cytotoxic, partial curve, poor fit] |
| COc1ccc(C(=O)N2CC3(C)CC2CC(C)(C)C3)cc1OC (stereo not given) | active: 23.1 µM |
| COc1ccc(-c2cc(=O)oc3cc(OC(C)C(=O)NCc4ccccn4)ccc23)cc1 (stereo not given) | inactive |
| C#C[C@]1(O)CC[C@H]2[C@@H]3CCC4=CC(=O)CC[C@@H]4[C@H]3CC[C@@]21CC | active: 13 µM and active: 7.31 µM |
| CSc1ccccc1C(=O)N1CCN(c2cccc(Cl)c2)CC1 | active: 16.4 µM |
| CC(C)N1CCC(=NNc2ccc(S(=O)(=O)N3CCOCC3)cc2[N+](=O)[O-])CC1 | inconclusive: 18.4 µM [cytotoxic, single point] |
| FC(F)(F)c1ccc(N/N=C/c2cccnc2)nc1 | inconclusive: 14.6 µM [rising, partial curve, poor fit] |
| O=C(CCC(=O)N1CC2CCCN2c2ccccc21)NCc1cccc(Cl)c1 (stereo not given) | inactive |
| CC(C)NC(=O)Cn1cc(C(=O)COc2ccccc2)c2ccccc21 | inconclusive: 23.1 µM [cytotoxic, single point] |
| CC(/C=N/n1cnnc1)=C\c1ccccc1 | active: 1.84 µM |
| COc1ccc2c(c1)CCCN2C(N)=Nc1ccc(Cl)cc1 | inactive |
| CCNC(=O)CC1C(=O)N(c2ccc(F)cc2)C(=O)N1Cc1ccc(OC)cc1 (stereo not given) | inactive |
| CN(C)C(=O)c1cccc(-c2cccc(-c3nc(C(=O)NCc4ccccc4)cc4c3[C@H](CCO)N(S(=O)C(C)(C)C)C4)c2)c1 (stereo not given in full) | inactive |
| CC1CCN(c2nc3c(c(=O)[nH]c(=O)n3C)n2CC(C)CSc2nnnn2-c2ccccc2)CC1 (stereo not given) | active: 3.66 µM |
| Cc1ccc(S(=O)(=O)NCCC(=O)N2CCN(Cc3ccccc3)CC2)cc1 | inconclusive: 13 µM [cytotoxic, partial curve] |
| Cc1ccc2oc(-c3cccc(NC(=S)NC(=O)/C=C/c4ccco4)c3)nc2c1 | inconclusive: 18.4 µM [cytotoxic, single point] |
| Cc1ccc(-c2nnc(SCC(=O)NC3CCCC3)nc2-c2ccc(C)cc2)cc1 | inactive |
| O=C1OC[C@H](Cc2ccc3c(c2)OCO3)/C1=C\c1ccc2c(c1)OCO2 | inconclusive: 25.9 µM [cytotoxic, single point] |
| CCc1cc(C(=O)N2CCc3c([nH]c4ccccc34)C2c2ccc(OC)cc2F)no1 (stereo not given) | inconclusive: 5.17 µM [cytotoxic, full curve] |
| COC(=O)c1ccccc1S(=O)(=O)Nc1ccc(OC)cc1 | inactive |
| CNC(=S)N(C)/N=C1/C(=O)N(Cc2c(Cl)cccc2Cl)c2ccccc21 | inconclusive: 9.2 µM [cytotoxic, partial curve] |

| SMILES | Potency |
| --- | --- |
| C=CCOn1c(=O)c(-c2cccs2)[n+]([O-])c2ccccc21 | inconclusive: 23.1 µM [cytotoxic, partial curve, poor fit] |
| CC1(Cc2ccc(C(F)(F)F)o2)C(=O)Nc2ccc(-c3cccc(C(F)(F)F)c3)cc21 (stereo not given) | inconclusive: 23.1 µM [cytotoxic, single point] |
| CCOc1cc(/C=C2/SC(=S)N(Cc3ccccc3)C2=O)ccc1O | inactive |
| Cc1nc(CNS(=O)(=O)c2ccc(F)cc2)cs1 | inconclusive: 29.1 µM [rising, single point] |
| O=c1oc2ccccc2c(NC2CCCCC2)c1NS(=O)(=O)c1ccc(Br)cc1 | inactive |
| O=C(CN1C2CCCC1CC(NC(=O)c1ccco1)C2)Nc1ccccc1 (stereo not given) | inconclusive: 5.17 µM [cytotoxic, partial curve] |
| COc1cccc(-n2c(SCC(=O)c3c[nH]c4ccccc34)nc3ccccc3c2=O)c1 | inconclusive: 20.6 µM [rising, single point] |
| Cc1cnc(NC(=O)c2nn(C)cc2[N+](=O)[O-])s1 | inconclusive: 29.1 µM [cytotoxic, single point] |
| Cc1nn(Cc2ccc(Cl)c(Cl)c2)c(C)c1NC(=O)c1noc2c1CCc1ccccc1-2 | inconclusive: 20.6 µM [cytotoxic, single point] |
| COc1ccc(/C=N\NC(=O)c2ccccc2F)cc1COc1ccc(F)cc1 | inactive |
| Cc1cc(C)cc(C(=O)N2CCCCCC2)c1 | inconclusive: 16.4 µM [cytotoxic, single point] |
| CCOc1ccc(CCNC(=O)CCCn2c(=O)c3cccn3c3cccnc32)cc1OCC | inconclusive: 23.1 µM [cytotoxic, single point] |
| CSc1ccc(CNC(=O)C2CCCN(S(=O)(=O)N(C)c3ccc(F)cc3)C2)cc1 (stereo not given) | inactive |
| CCC(C)c1ccc(C(CC)NC(=O)C2CCCO2)cc1 (stereo not given) | inactive |
| COc1ccc(OCc2nc(N)nc(Nc3ccccc3)n2)cc1 | inconclusive: 29.1 µM [cytotoxic, partial curve, poor fit] |
| COc1cccc(NC(=O)Nc2nnc(Cc3ccccc3)s2)c1 | inconclusive: 4.11 µM [cytotoxic, partial curve] |
| CCSc1nsc(NC(=O)Nc2cccc(F)c2)n1 | inconclusive: 29.1 µM [cytotoxic, single point] |
| CCc1cc(C(=O)N2CCN(S(=O)(=O)c3ccc(Cl)cc3)CC2)sc1C | inactive |
| CSc1cccc(NC(=S)N(Cc2ccccc2)Cc2cccnc2)c1 | inconclusive: 9.2 µM [cytotoxic, partial curve] |
| COc1cccc(CNCCSc2nnnn2C)c1OCc1ccccc1 | inconclusive: 4.11 µM [cytotoxic, full curve, poor fit] |
| Cc1cc(C)c2c(c1)/C(=N/NS(=O)(=O)c1ccc(Br)cc1)CCC2 | inconclusive: 29.1 µM [cytotoxic, single point] |
| C/C(Cl)=C\Cn1c(O)c(N=NC(N)=S)c2cc(Br)ccc21 | inconclusive: 20.6 µM [cytotoxic, single point] |

4 of the compounds above, with each value named.
Cc1cc(C)cc(C(=O)N2CCCCCC2)c1
  Potency: inconclusive: 16.4 µM [cytotoxic, single point]
CCOc1ccc(CCNC(=O)CCCn2c(=O)c3cccn3c3cccnc32)cc1OCC
  Potency: inconclusive: 23.1 µM [cytotoxic, single point]
CSc1ccc(CNC(=O)C2CCCN(S(=O)(=O)N(C)c3ccc(F)cc3)C2)cc1 (stereo not given)
  Potency: inactive
CCC(C)c1ccc(C(CC)NC(=O)C2CCCO2)cc1 (stereo not given)
  Potency: inactive
